Measured values reported in article PMC7862700.
This is a selection; strong and weak results do not stand in their true shares. At the low end of the ranking the order means little.

molecular target: T1, ELK1 (UniProt P19419); assay: DAPPL (digital affinity profiling via proximity ligation, sequencing); details: 10 mM Tris-HCl pH 7.5, 50 mM NaCl, 1 mM DTT, 4% glycerol, room temperature, 30 min; GST-TFs on glutathione beads, 16-mer random dsDNA library, 0.1% …; high values mean tight binding; double strand, one strand shown; scale: fold enrichment (6-mer frequency, TF over GST control)
T1 sequence: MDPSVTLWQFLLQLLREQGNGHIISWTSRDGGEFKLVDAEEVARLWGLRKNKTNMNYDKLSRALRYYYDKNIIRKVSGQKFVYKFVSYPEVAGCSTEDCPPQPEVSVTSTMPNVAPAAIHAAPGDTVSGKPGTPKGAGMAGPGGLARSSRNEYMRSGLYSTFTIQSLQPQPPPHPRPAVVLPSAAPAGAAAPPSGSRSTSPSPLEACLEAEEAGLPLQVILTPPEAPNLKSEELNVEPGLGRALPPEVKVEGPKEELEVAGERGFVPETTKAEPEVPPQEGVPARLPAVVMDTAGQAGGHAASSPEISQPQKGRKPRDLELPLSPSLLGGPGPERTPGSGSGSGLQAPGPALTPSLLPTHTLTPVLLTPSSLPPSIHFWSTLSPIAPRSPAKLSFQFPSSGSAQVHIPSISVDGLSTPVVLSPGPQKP

Question: With GGCGGA as the sequence, how does the binding signal read?
Answer: The binding signal was 0.367.

Question: Which binding signal does the source give for AGGATC here?
Answer: Its binding signal is 0.906.

Question: GTGGGT was tested. Which binding signal did it give?
Answer: The binding signal was 0.536.

Question: With GGGATA as the sequence, how does the binding signal read?
Answer: Its binding signal is 0.801.

Question: For GGTTGA, which binding signal is on record?
Answer: Its binding signal is 0.737.

Question: For GAGTCG, which binding signal is on record?
Answer: The binding signal was 0.222.

Question: How did the binding signal turn out when ACGTAG was run?
Answer: The binding signal was 0.755.

Question: With CAGTGT as the sequence, how does the binding signal read?
Answer: The binding signal was 0.671.

Question: CGCATC was tested. Which binding signal did it give?
Answer: Its binding signal is 0.92.

Question: Which binding signal does the source give for ACCAGT here?
Answer: Its binding signal is 0.49.

Question: For GTAGTC, which binding signal is on record?
Answer: The binding signal was 0.763.

Question: For TACAGT, which binding signal is on record?
Answer: Its binding signal is 0.893.

Question: CAGTCT was tested. Which binding signal did it give?
Answer: The binding signal was 0.744.

Question: AGACGC was tested. Which binding signal did it give?
Answer: The binding signal was 0.706.

Question: ATCCAG was tested. Which binding signal did it give?
Answer: Its binding signal is 0.873.

Question: Which binding signal does the source give for AGATTG here?
Answer: The binding signal was 0.885.

Question: How did the binding signal turn out when ACCGAG was run?
Answer: Its binding signal is 0.743.

Question: With GGCGCT as the sequence, how does the binding signal read?
Answer: The binding signal was 0.708.

Question: For CGGGAC, which binding signal is on record?
Answer: Its binding signal is 0.598.

Question: Which binding signal does the source give for CACGGT here?
Answer: The binding signal was 0.953.

Question: Which binding signal does the source give for GACGGA here?
Answer: The binding signal was 0.495.

Question: Which binding signal does the source give for CCAGCG here?
Answer: The binding signal was 0.667.

Question: How did the binding signal turn out when GGTCGG was run?
Answer: Its binding signal is 0.273.

Question: For CCCAGC, which binding signal is on record?
Answer: The binding signal was 0.957.

Question: Which binding signal does the source give for CGTGGC here?
Answer: The binding signal was 0.868.

Question: For GCCGGG, which binding signal is on record?
Answer: Its binding signal is 0.394.

Question: For TCGCCA, which binding signal is on record?
Answer: Its binding signal is 0.994.

Question: TCGGTT was tested. Which binding signal did it give?
Answer: The binding signal was 0.845.

Question: For TGCGTG, which binding signal is on record?
Answer: The binding signal was 0.729.

Question: Which binding signal does the source give for GCGCGG here?
Answer: The binding signal was 0.814.

Question: How did the binding signal turn out when CGGTAG was run?
Answer: The binding signal was 0.713.

Question: ACGCAG was tested. Which binding signal did it give?
Answer: Its binding signal is 0.818.

Question: How did the binding signal turn out when TGTAGT was run?
Answer: The binding signal was 0.969.

Question: Which binding signal does the source give for CGGTAA here?
Answer: Its binding signal is 0.975.

Question: GCGGGC was tested. Which binding signal did it give?
Answer: The binding signal was 0.763.

Question: ACAGTC was tested. Which binding signal did it give?
Answer: The binding signal was 0.414.

Question: How did the binding signal turn out when GGGGTG was run?
Answer: The binding signal was 0.635.

Question: How did the binding signal turn out when GGGCGG was run?
Answer: Its binding signal is 0.422.

Question: GGTAGC was tested. Which binding signal did it give?
Answer: Its binding signal is 0.879.

molecular target: T2, ELK3 (UniProt P41970); assay: as above; details: 10 mM Tris-HCl pH 7.5, 50 mM NaCl, 1 mM DTT, 4% glycerol, room temperature, 30 min; GST-TFs on glutathione beads, 16-mer random dsDNA library, 0.1% …; high values mean tight binding; double strand, one strand shown; scale: fold enrichment (6-mer frequency, TF over GST control)
T2 sequence: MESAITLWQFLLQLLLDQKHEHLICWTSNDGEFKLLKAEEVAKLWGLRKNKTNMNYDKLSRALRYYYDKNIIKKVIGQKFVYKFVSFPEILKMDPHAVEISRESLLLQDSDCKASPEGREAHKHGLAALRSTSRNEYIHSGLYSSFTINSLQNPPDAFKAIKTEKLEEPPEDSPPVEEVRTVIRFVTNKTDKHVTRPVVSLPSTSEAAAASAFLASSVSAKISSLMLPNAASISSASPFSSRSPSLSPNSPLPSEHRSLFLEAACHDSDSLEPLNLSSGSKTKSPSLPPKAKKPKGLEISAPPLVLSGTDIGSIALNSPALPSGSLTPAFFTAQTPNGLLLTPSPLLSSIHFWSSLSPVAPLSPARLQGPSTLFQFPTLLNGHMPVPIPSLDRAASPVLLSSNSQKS

Question: How did the binding signal turn out when GGCGGA was run?
Answer: Its binding signal is 0.387.

Question: With AGGATC as the sequence, how does the binding signal read?
Answer: Its binding signal is 0.917.

Question: How did the binding signal turn out when GTGGGT was run?
Answer: Its binding signal is 0.438.

Question: For GGGATA, which binding signal is on record?
Answer: The binding signal was 0.681.

Question: How did the binding signal turn out when GGTTGA was run?
Answer: The binding signal was 0.782.

Question: Which binding signal does the source give for GAGTCG here?
Answer: The binding signal was 0.221.

Question: With ACGTAG as the sequence, how does the binding signal read?
Answer: Its binding signal is 0.814.

Question: Which binding signal does the source give for CAGTGT here?
Answer: The binding signal was 0.656.

Question: Which binding signal does the source give for CGCATC here?
Answer: The binding signal was 0.979.

Question: For ACCAGT, which binding signal is on record?
Answer: Its binding signal is 0.466.

Question: GTAGTC was tested. Which binding signal did it give?
Answer: The binding signal was 0.651.

Question: How did the binding signal turn out when TACAGT was run?
Answer: Its binding signal is 0.85.

Question: With CAGTCT as the sequence, how does the binding signal read?
Answer: The binding signal was 0.713.

Question: For AGACGC, which binding signal is on record?
Answer: Its binding signal is 0.639.

Question: Which binding signal does the source give for ATCCAG here?
Answer: The binding signal was 0.885.

Question: How did the binding signal turn out when AGATTG was run?
Answer: Its binding signal is 0.891.

Question: ACCGAG was tested. Which binding signal did it give?
Answer: The binding signal was 0.707.

Question: With GGCGCT as the sequence, how does the binding signal read?
Answer: Its binding signal is 0.742.

Question: CGGGAC was tested. Which binding signal did it give?
Answer: The binding signal was 0.569.

Question: With CACGGT as the sequence, how does the binding signal read?
Answer: The binding signal was 0.844.

Question: Which binding signal does the source give for GACGGA here?
Answer: The binding signal was 0.556.

Question: CCAGCG was tested. Which binding signal did it give?
Answer: Its binding signal is 0.741.

Question: How did the binding signal turn out when GGTCGG was run?
Answer: Its binding signal is 0.303.

Question: How did the binding signal turn out when CCCAGC was run?
Answer: The binding signal was 0.951.

Question: For CGTGGC, which binding signal is on record?
Answer: The binding signal was 0.894.

Question: For GCCGGG, which binding signal is on record?
Answer: Its binding signal is 0.401.

Question: TCGCCA was tested. Which binding signal did it give?
Answer: Its binding signal is 0.998.

Question: With TCGGTT as the sequence, how does the binding signal read?
Answer: The binding signal was 0.791.

Question: For TGCGTG, which binding signal is on record?
Answer: The binding signal was 0.639.

Question: With GCGCGG as the sequence, how does the binding signal read?
Answer: The binding signal was 0.818.

Question: How did the binding signal turn out when CGGTAG was run?
Answer: Its binding signal is 0.692.

Question: For ACGCAG, which binding signal is on record?
Answer: The binding signal was 0.741.

Question: With TGTAGT as the sequence, how does the binding signal read?
Answer: The binding signal was 0.958.

Question: With CGGTAA as the sequence, how does the binding signal read?
Answer: The binding signal was 0.866.

Question: GCGGGC was tested. Which binding signal did it give?
Answer: The binding signal was 0.795.

Question: With ACAGTC as the sequence, how does the binding signal read?
Answer: Its binding signal is 0.386.

Question: Which binding signal does the source give for GGGGTG here?
Answer: The binding signal was 0.718.

Question: For GGGCGG, which binding signal is on record?
Answer: Its binding signal is 0.442.

Question: With GGTAGC as the sequence, how does the binding signal read?
Answer: Its binding signal is 0.827.

molecular target: T3, SPIC (UniProt Q8N5J4); assay: as above; details: 10 mM Tris-HCl pH 7.5, 50 mM NaCl, 1 mM DTT, 4% glycerol, room temperature, 30 min; GST-TFs on glutathione beads, 16-mer random dsDNA library, 0.1% …; high values mean tight binding; double strand, one strand shown; scale: fold enrichment (6-mer frequency, TF over GST control)
T3 sequence: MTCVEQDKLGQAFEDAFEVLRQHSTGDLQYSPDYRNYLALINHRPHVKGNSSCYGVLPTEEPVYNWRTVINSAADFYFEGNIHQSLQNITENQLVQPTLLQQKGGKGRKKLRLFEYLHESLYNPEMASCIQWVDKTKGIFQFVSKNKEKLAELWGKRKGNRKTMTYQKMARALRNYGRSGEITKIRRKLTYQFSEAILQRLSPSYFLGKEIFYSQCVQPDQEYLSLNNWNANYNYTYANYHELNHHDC

Question: How did the binding signal turn out when GGCGGA was run?
Answer: The binding signal was 0.437.

Question: Which binding signal does the source give for AGGATC here?
Answer: Its binding signal is 0.877.

Question: GTGGGT was tested. Which binding signal did it give?
Answer: Its binding signal is 0.525.

Question: GGGATA was tested. Which binding signal did it give?
Answer: Its binding signal is 0.675.

Question: Which binding signal does the source give for GGTTGA here?
Answer: Its binding signal is 0.838.

Question: How did the binding signal turn out when GAGTCG was run?
Answer: Its binding signal is 0.234.

Question: Which binding signal does the source give for ACGTAG here?
Answer: Its binding signal is 0.827.

Question: How did the binding signal turn out when CAGTGT was run?
Answer: Its binding signal is 0.734.

Question: Which binding signal does the source give for CGCATC here?
Answer: The binding signal was 0.874.

Question: Which binding signal does the source give for ACCAGT here?
Answer: Its binding signal is 0.453.

Question: With GTAGTC as the sequence, how does the binding signal read?
Answer: The binding signal was 0.573.

Question: TACAGT was tested. Which binding signal did it give?
Answer: The binding signal was 0.851.

Question: CAGTCT was tested. Which binding signal did it give?
Answer: The binding signal was 0.762.

Question: How did the binding signal turn out when AGACGC was run?
Answer: The binding signal was 0.674.

Question: ATCCAG was tested. Which binding signal did it give?
Answer: Its binding signal is 0.86.

Question: How did the binding signal turn out when AGATTG was run?
Answer: The binding signal was 0.856.

Question: For ACCGAG, which binding signal is on record?
Answer: The binding signal was 0.826.

Question: Which binding signal does the source give for GGCGCT here?
Answer: The binding signal was 0.892.

Question: With CGGGAC as the sequence, how does the binding signal read?
Answer: The binding signal was 0.49.
